US20150064287A1, “METHOD FOR TREATING ABNORMAL POLYGLUTAMINE-MEDIATED DISEASES” (NATIONAL TAIWAN NORMAL UNIVERSITY, priority 2013, published 2015)

Test system: 293 ATXN3/Q75-GFP cells
Test: ATXN3/Q75 aggregation assay in 293 cells (high-content analysis)
Assay type: cell-based, human
Conditions: effective dose = reduced the ATXN3/Q75 aggregation to 86% or lower
Procedure: The isogenic ATXN3/[…]-75 cell line was employed, which was formed from subjecting the Flp-InTM-293 cells to targeting insertion of the pcDNA5/FRT/TO-ATXN3/[…] and […] recombinant plasmids. These cell lines were grown in medium containing 5 μg/mL blasticidin and 100 μg/mL hygromycin (InvivoGen). In addition, the method for culture in establishment of the human SH-SY5Y derived Flp-In host cell line and the formation of the isogenic ATXN3/[…]-75 cell line was the same. […] Then doxycycline (10 μg/mL, BD) and oxaliplatin (5 μM, Sigma) were added for 6 days.

| Structure (SMILES) | IC50 cytotoxicity/effective dose ratio |
| --- | --- |
| COC(=O)C1=CO[C@@H](O)[C@@H]2C(CO)=CC[C@H]12 [genipin] | 11600 |
| COC(=O)C1=CO[C@@H](O[C@@H]2O[C@H](CO)[C@@H](O)[C@H](O)[C@H]2O)[C@@H]2C(CO)=CC[C@H]12 [geniposide] | > 2000 |
